Assay results: the supplement of paper PMC7858590
± gives the standard deviation of the averaged measurements. In all, about 3,800 compounds were measured (“cell shape (eccentricity) Z-score vs DMSO control”: median about 1.1, lowest 2% from about -4.7 on). The list shows a part of the results.

Tested on: human monocyte-derived macrophages (M0)
Test: cell shape (eccentricity) Z-score vs DMSO control; higher = more elongated, M2-like morphology
Conditions: 20 µM; 24 h; macrophage state: M0 (M-CSF)

Row | Structure (SMILES) | cell shape (Z-score)
1 | CC(=O)C1CCC2C3CCC4CC(C)(O)CCC4(C)C3CCC12C (configuration not stated) | 2.24
2 | CCCN(CCC)CCc1c[nH]c2ccc(C(N)=O)cc12 | 2.79
3 | N#C[C@@H](OC1OC(COC2OCC(O)C(O)C2O)C(O)C(O)C1O)c1ccccc1 (some centres not stated) | 1.94 ± 0.78
4 | CC[C@H]1CN2CCc3cc(OC)c(OC)cc3C2C[C@@H]1CC1NCCc2cc(OC)c(OC)cc21 (some centres not stated) | -3.35
5 | CCCN(CCC)C1CCc2cccc(O)c2C1 (configuration not stated) | 5.39
6 | c1cncc(C2CCCCN2)c1 (configuration not stated) | 2.04
7 | Cl.c1ccc(C2CNCc3ccccc32)cc1 (configuration not stated) | -1.58
8 | COC1CC(OC2CCC3(C)C(CCC4C3CCC3(C)C(C5=CC(=O)OC5)C(OC(C)=O)CC43O)C2)OC(C)C1OC1OC(COC2OC(CO)C(O)C(O)C2O)C(O)C(O)C1O (configuration not stated) | -0.0893
9 | Cc1ccc(C[N+](C)(C)C)o1 | 1.44
10 | CC(C)(Cc1c[nH]c2ccc(Cl)cc12)NCCOc1ccccc1OCC1CC1 | 4.98
11 | COc1cc([C@@H]2c3cc4c(c(O)c3C[C@H]3COC(=O)[C@@H]32)OCO4)cc(OC)c1OC | 10
12 | COc1cc([C@@H]2c3cc4c(cc3[C@@H](O)C3COC(=O)C32)OCO4)cc(OC)c1O (some centres not stated) | 10.5
13 | C=C[C@H]1C[N@@]2CC[C@H]1C[C@H]2[C@H](O)c1ccnc2ccccc12 | 2.46
14 | CN1CCC2(c3cccc(O)c3)Cc3nc4ccccc4cc3CC2C1 (configuration not stated) | 0.791
15 | CC(C)(C)c1onc(O)c1CC(N)C(=O)O (configuration not stated) | 1.71
16 | COc1cc2c(cc1O)C(CCc1ccc(Cl)cc1)N(C)CC2 (configuration not stated) | 0.755
17 | COc1cc2c(cc1OC)[C@@H]1CC(=O)[C@@H](CC(C)C)CN1CC2 | 2.65
18 | O=[N+]([O-])c1ccc(O)c([N+](=O)[O-])c1 | -0.626
19 | O=C(N[C@H]1CN2CCC1CC2)c1ccc(Cl)cc1 | 1.37
20 | C=CCN1C[C@H](C)N([C@H](c2ccc(C(=O)N(CC)CC)cc2)c2cccc(O)c2)C[C@H]1C | 1.38
21 | CCCCCOc1c(OC)ccc2cc(C(=O)NCc3ccc4c(c3)OCO4)c(=O)[nH]c12 | 0.652
22 | CC(=O)C1CCC2C3CCC4C[C@H](O)CCC4(C)C3C[C@H](O)C12C (some centres not stated) | -0.099

Two records drawn at random from the list so far:
Row | Structure (SMILES) | cell shape (Z-score)
17 | COc1cc2c(cc1OC)[C@@H]1CC(=O)[C@@H](CC(C)C)CN1CC2 | 2.65
1 | CC(=O)C1CCC2C3CCC4CC(C)(O)CCC4(C)C3CCC12C (configuration not stated) | 2.24
